This is one part of the list. These are further read-outs of the screen, such as a control signal, another cell line or another target. No call is given for them. Compounds called inactive in the main read-out are mostly missing here. Words in brackets tell the shape of the fitted curve; partial curves, single points and poor fits give uncertain potencies.
Assay: qHTS Assay to Find Inhibitors of Chronic Active B-Cell Receptor Signaling
Settings: ABC-DLBCL IkBa-CBG/CBR reporter, luminescence ratio (green luciferase fused to IkBa over red control in TMD8 lymphoma cells), 4 h
Method in brief: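 TMD8 ABC-DLBCL cells carrying doxycycline-inducible green luciferase fused to IkappaBalpha plus unfused red luciferase were exposed to compounds (up to 46 uM) for 4 hrs at 37C. Activity came from the overlap-corrected green/red luminescence ratio.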

[1] = measured here: CBR red luminescence, cell number
[2] = measured here: IkBa-CBG green luminescence

Compound | AC50 [1] | AC50 [2]
O=C(/C=C/c1ccccc1)/C=C/c1ccccc1 | 11.2 µM [falling, partial curve] | 35.5 µM [rising, partial curve, poor fit]
Cc1cc(C)n(-c2ccc(C(=O)Nc3ccc(S(=O)(=O)NCc4ccco4)cc3)cc2)n1 | 10 µM [falling, partial curve, poor fit] | –
COc1ccc(Cl)cc1NC(=O)COC(=O)CCCN1C(=O)c2ccccc2C1=O | 32.6 µM [rising, single point] | –
Cc1ccc(NC(=O)COc2ccccc2C(=O)NCc2ccccc2)cc1 | 6.51 µM [rising, full curve, poor fit] | –
O=C(Oc1cccc2cccnc12)c1ccco1 | – | 29.1 µM [falling, single point]
COc1cc(NC(=O)c2[nH]cnc2C(N)=O)cc(C(=O)Nc2cccc(C(F)(F)F)c2)c1 | 7.31 µM [rising, partial curve, poor fit] | –
O=C(Oc1ccccc1)c1cccc2cccnc12 | – | 29.1 µM [falling, single point]
COc1ccc(CNC(=O)C[C@H]2C[C@H](C(=O)N(C(C)C)C(C)C)[C@@]3(C)c4[nH]c5cc(-c6ccco6)ccc5c4CCN3C2=O)cc1OC | 18.4 µM [falling, single point] | –
NC(=O)C1(C(N)=O)OC1c1ccc(Cl)c(Cl)c1 (centres undefined) | 3.16 µM [rising, partial curve, poor fit] | –
N#C/C(=C(/O)COc1ccccc1)c1nc2ccccc2s1 | 1.58 µM [falling, full curve] | –
Cc1cc(NC(=S)NC(=O)c2ccccc2)ccc1-c1cc2ccccc2oc1=O | 29.1 µM [rising, single point] | –
O=C(Nc1ccc(Cl)c(C(F)(F)F)c1)c1ccco1 | 23.1 µM [rising, single point] | –
CCOc1ccccc1NC(=O)CSc1nnc(-c2ccncc2)o1 | 29.1 µM [falling, single point] | –
Cc1ccc(SCC(=O)Nc2ccccc2C(=O)O)cc1 | 6.51 µM [falling, partial curve, poor fit] | –
COCc1c(C(=O)N2CCN(S(=O)(=O)c3ccccc3Cl)CC2)oc2ccccc12 | 25.9 µM [rising, single point] | –
CCCNC(=O)c1noc2c1CCc1ccccc1-2 | 18.4 µM [falling, single point] | –
COc1ccccc1NC(=O)CN1CCCCCC1 | 17.8 µM [falling, partial curve, poor fit] | –
COC(=O)c1cccnc1-n1c(=O)c2cccnc2n(CC(=O)Nc2ccc(Br)cc2)c1=O | 10 µM [rising, partial curve, poor fit] | –

Taken from above:
AC50 [2] with O=C(Oc1cccc2cccnc12)c1ccco1 reads 29.1 µM [falling, single point]
AC50 [2] with O=C(Oc1ccccc1)c1cccc2cccnc12 reads 29.1 µM [falling, single point]

— PubChem BioAssay AID493014 (National Center for Advancing Translational Sciences (NCATS), 2011)
